In PubChem BioAssay AID1307 (SRMLSC, 2008):
Out of some 1,200 compounds screened, fewer than 10 were called active.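 The calls were made as follows: active = inhibition reaching a set limit at one or more tested concentrations; inactive = inhibition under that limit at every dose.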 The list shows a part of the results. Potency and affinity values are given separately.

Assay: yeast RAM network inhibitors, dose response, S. cerevisiae (AID 1307);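 also: 0% = DMSO vehicle wells and 100% = 10 µM 1-NA-PP1 control; higher inhibition means more yeast growth since RAM block rescues cells from 5-FOA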
Settings: S. cerevisiae RAM network URA3 reporter, 5-FOA growth OD615, stronger effect = higher value, yeast express analog-sensitive mutant Cbk1 kinase; at 100 µM unless noted

Max inhibition, inactive:
COc1ccccc1-c1noc(CCC(=O)Nc2cccc(C(F)(F)F)c2)n1 2.9% [at 0.782 µM], Cn1c(SCC(=O)N2CCc3ccccc32)nnc1-c1ccc(S(=O)(=O)N2CCCC2)cc1 6.24%, Cc1cnn(-c2nc(-c3ccccc3)cc(-c3ccccc3)n2)c1 2.2% [at 0.782 µM], Cc1ccc(OCC(O)Cn2c3ccccc3c3ccccc32)cc1 (centres undefined) 4.27%, O=C(Nc1ccccc1Cl)c1cccc(COc2cc(Cl)ccc2Cl)c1 2.59%, O=C(COC(=O)C1(c2ccccc2F)CCCC1)Nc1ncc(C(F)(F)F)cc1Cl 2.79% [at 0.196 µM], CCOC(=O)C1=C(O)/C(=C/c2cc(OC)c(O)c(OC)c2)SC1=Nc1ccc(OC)cc1 4.16%, CCOC(=O)c1c(-c2cccc([N+](=O)[O-])c2)csc1NC(=O)CCCOc1ccccc1 4.41% [at 25 µM], COc1cccc(CN(Cc2ccccc2F)S(=O)(=O)c2ccc(S(=O)(=O)NCc3ccccc3)cc2)c1 4.33%, COc1ccccc1OCC(=O)Nc1ccc(CSc2ccccc2)cc1C 1.56% [at 25 µM], O=C(Nc1ccc(Br)cc1)c1cccc(S(=O)(=O)Nc2cnc3ccccc3c2)c1 3.63%, COc1ccccc1NS(=O)(=O)c1ccc2oc(SCc3ccc(F)cc3)nc2c1 1.06%, O=C(O)CC1S/C(=N/N=C/c2ccc(Br)cc2)N(c2ccccc2)C1=O (centres undefined) 5.74%, O=C(CSc1nc2ccccc2c(=O)n1CCC(=O)N1CCCCC1)NCc1ccccc1 2.79% [at 3.125 µM], COc1ccc(OC2C(=O)N(Cc3ccc4c(c3)OCO4)C2c2cccs2)cc1 (centres undefined) 3.16%, CC1=C(C(=O)OCc2ccccc2)C(c2ccc([N+](=O)[O-])cc2)NC(=O)N1CCCCCC(=O)O (centres undefined) 2.11% [at 0.782 µM], Cc1ccc(OCCn2cc(/C=C(\C#N)C(=O)NCC3CCCO3)c3ccccc32)cc1 (centres undefined) 4.27%, C=CCN(CC=C)S(=O)(=O)c1ccc(NC(=O)COc2ccccc2OC)cc1 3.12% [at 50 µM], CCCN(CC1CC1)C(=O)CSc1ncnc2sc(C)c(C)c12 3.11% [at 3.125 µM], COC(=O)c1ccc(CSc2nc(-c3ccco3)cc(C(F)(F)F)n2)o1 5.27%, COc1ccc(Br)cc1C(=O)Nc1ccccc1-c1ccccc1 6.2% [at 50 µM], CCOC(=O)C1=NN(c2ccccc2C)C2=NC(C)=C(C(=O)OC)C(c3cccc(OC)c3)N12 (centres undefined) 3.76% [at 3.125 µM], COc1cc(NS(=O)(=O)c2ccc(NC(=S)NC(=O)/C=C/c3ccco3)cc2)ncn1 5.65%, O=C(CC(c1ccccc1)(c1ccccc1)c1ccccc1)N[C@@H](Cc1ccccc1)C(=O)O 5.06%, COc1ccc2c(CC(=O)OCC(=O)Nc3cc(C)c(C)cc3[N+](=O)[O-])coc2c1 3.19%, Cc1ccc2nc(-c3ccc(NC(=O)CSc4nccc(=O)[nH]4)cc3)sc2c1 5.79%, Cc1ccc(SCCNC(=O)c2ccc(C)c(S(=O)(=O)Nc3cccc(C)c3)c2)cc1 5.06%, COc1ccc(C(=O)NCC(=O)OCc2cccc(Br)c2)cc1 2.31% [at 0.196 µM], Cc1ccc(C(=O)Nc2cc(Cl)ccc2N2CCCCC2)s1 3.86%, O=C(OCC#CCSc1nnc(-c2cccc3ccccc23)o1)c1ccco1 2.9% [at 12.5 µM], CCCCc1ccc(NC(=S)Nc2ccc(Cl)c(S(=O)(=O)N(C)C)c2)cc1 3.53% [at 50 µM], CC1CCc2nc(NC(=O)Nc3ccc4c(c3)OCO4)sc2C1 (centres undefined) 2.56% [at 1.563 µM], C=CCOC(=O)C1=C[C@@H](c2csc3ccccc23)C[C@@H](OCc2ccc(CO)cc2)O1 3.74% [at 12.5 µM], CCCCN1C(=O)/C(=C/C=C2\SCCN2C)SC1=S 2.53% [at 0.782 µM], O=C(OCc1ccc(Br)cc1)c1cccc(-c2nnc(-c3ccccc3)o2)c1 3.8% [at 12.5 µM], C=CCO/N=C(\C)c1c(O)c(C)c(-c2ccccc2)n(-c2ccccc2)c1=O 3.28%, CCSC1=N/C(=C\c2ccc3c(c2)OCO3)C(=O)S1 4.16%, COCCCNC(=S)N1CCCN(c2nc3c(C)c(C)ccc3cc2C#N)CC1 4.04%, COC(=O)c1ccc(-c2ncc(-c3cccc4ccccc34)o2)cc1 2.44% [at 1.563 µM], COc1cccc(-c2nc(=S)c3c(n2Cc2ccco2)CCCC3)c1 3.28% [at 50 µM], O=C(NCCn1cc(SCc2ccccc2)c2ccccc21)c1ccccc1F 1.2% [at 0.782 µM], CCCCCOc1ccc(C(=O)OCC(=O)Nc2cc(C)c(C)cc2[N+](=O)[O-])cc1 3.63%, CCOC(=O)/C(C#N)=C/c1cn(CCOc2ccc(OC)cc2)c2ccccc12 4.14% [at 50 µM], CCOC(=O)C1=C(CC)Nc2ccccc2N=C1NC(=O)c1cc(S(=O)(=O)N(C)C)ccc1Cl 7.91%, Cc1cccc(C(=O)NCc2nnc3c4ccccc4c(-c4ccccc4)nn23)c1 4.5%, O=C(CCCSc1nc2ccccc2[nH]1)Nc1nnc(-c2ccccc2)o1 1.46% [at 1.563 µM], CN(C(=S)Nc1ccc(Oc2ccccc2)cc1)c1ccc(O)cc1 1.95% [at 0.391 µM], Cc1ccc(C)c(N2CCN(C(=O)c3ccc(Cn4c(=S)[nH]c5ccc(N6CCOCC6)cc5c4=O)cc3)CC2)c1 5.67%, CCOC(=O)c1c(-c2cccs2)csc1NC(=O)COC(=O)c1c(C)noc1C 4.68%, O=C(NCCSCc1ccccc1)c1ccc(C2SCC(=O)N2Cc2ccccc2)cc1 (centres undefined) 3.37% [at 50 µM], COc1ccc(C2NC(=O)NC(C)=C2C(=O)Nc2cc(C)ccc2C)cc1OC (centres undefined) 11.8%, COc1cccc(C(=O)NN2c3ccccc3CCc3ccccc32)c1 2.81%, CN(C[C@@H](CC1CCCCC1)N(C[C@H](Cc1ccccc1)N(CCc1ccccc1)N=O)N=O)N=O 4.71%, O=C(CN(C(=O)CCC(=O)Nc1ccccn1)c1ccc2c(c1)OCCO2)NCCc1ccccc1 5.19%, CC(Oc1ccc(-c2ccccc2)c(F)c1)c1ccn(S(=O)(=O)c2ccc(Br)cc2)n1 (centres undefined) 3.51%, S=C(NCC1CCCCC1)Nc1ccc(Oc2ccccc2)cc1 2.31% [at 50 µM], Cc1cc(/C=C(/C#N)c2cccc(Cl)c2)c(C)n1C 4.01%, Cc1ccc(C(=O)c2ccccc2C(=O)OCC(=O)NCCc2ccc(Cl)cc2Cl)cc1 3.42%, COc1ccccc1N(CC(O)COc1ccc(C)cc1)S(=O)(=O)c1ccccc1 (centres undefined) 4.01% [at 50 µM], COc1cccc(NC(=S)NCc2ccc3c(c2)cc(C)n3C)c1 3.71% [at 25 µM], COc1ccc(C(=O)OCC(=O)c2ccc(C3CCCCC3)cc2)cc1 5.71% [at 25 µM], Cc1cccc(/C=C2\Oc3cc(OS(C)(=O)=O)ccc3C2=O)c1 2.88% [at 3.125 µM], C=CCn1c(SCc2cc(C(C)=O)ccc2OCC)nc2ccccc2c1=O 2.29% [at 12.5 µM], CC(=O)Nc1ccc(S(=O)(=O)Nc2nc3ccccc3nc2Nc2ccc3ccccc3c2)cc1 5.34% [at 12.5 µM], CC(C)S(=O)(=O)C1=NSC2=NC(=O)/C(=C\c3ccc(-c4ccccc4)o3)C(=N)N21 11.4%, COc1cc(CNn2c(C)n[nH]c2=S)cc(Cl)c1OCc1ccc(F)cc1 4.5%, CCN(CC)S(=O)(=O)c1ccc(NC(=O)CCC2CCCCC2)cc1 7.29%, COc1cccc(NC(=S)NCCC(c2ccccc2)c2ccccc2)c1 3.76% [at 50 µM], C(=N\N(c1ccccc1)c1ccccc1)/c1ccc2c(c1)OCO2 2.94% [at 0.782 µM], CCOc1ccccc1NC(=S)NC(=O)CCCOc1ccc(Cl)cc1Cl 3.13% [at 50 µM], CCCCn1c(SCc2nc3ccccc3s2)nc2ccccc2c1=O 8.78%, CC1(C)C(C=C(Cl)Cl)C1C(=O)Nc1ccc([N+](=O)[O-])cc1 (centres undefined) 2.98% [at 6.25 µM], COc1ccc(NC2=C(Cl)C(=O)N(CCc3ccccc3)C2=O)c(OC)c1 2.52% [at 3.125 µM], CCOC(=O)c1c(-c2ccc(OC)cc2)csc1NC(=O)CSc1ccccc1 5.06%, CNCC(C)COc1ccccc1OCc1ccccc1 (centres undefined) 3.04% [at 0.196 µM], O=C(C(Sc1ccccc1)c1ccccc1)N1CCN(c2ccccc2)CC1 (centres undefined) 2.99% [at 3.125 µM], Cc1ccc(O)c(-c2cc(-c3cccc(Br)c3)n[nH]2)c1 2.94%, Brc1ccc(CSc2nnc(Cc3c[nH]c4ccccc34)o2)cc1 3.66%, COc1ccc(CC(=O)Nc2cccc(S(=O)(=O)N3CCCCCC3)c2)cc1OC 2.17% [at 0.782 µM]
